PMC7199855, “GRAF2, WDR44, and MICAL1 mediate Rab8/10/11–dependent export of E-cadherin, MMP14, and CFTR ΔF508” (The Journal of Cell Biology, 2020)
Where a chain is given by its changes, count along the chain named. These are yes or no findings as the source states them, for the method shown. Binding seen in cells or lysates may run through a third protein. Some binding calls cover weakened binding; strength is not graded here. Tags and fused reporters may be left off the sequences shown.

Assays:
[1] = target: T1, myc–MICAL1 G3W (human) (UniProt Q8TDZ2); assay: co-IP; transfected 293T, IP with α-myc antibody and Protein G Sepharose; 20 mM Hepes pH 7.4, 150 mM NaCl, 2 mM EDTA, 1% IGEPAL CA-630; Western blot
T1 sequence: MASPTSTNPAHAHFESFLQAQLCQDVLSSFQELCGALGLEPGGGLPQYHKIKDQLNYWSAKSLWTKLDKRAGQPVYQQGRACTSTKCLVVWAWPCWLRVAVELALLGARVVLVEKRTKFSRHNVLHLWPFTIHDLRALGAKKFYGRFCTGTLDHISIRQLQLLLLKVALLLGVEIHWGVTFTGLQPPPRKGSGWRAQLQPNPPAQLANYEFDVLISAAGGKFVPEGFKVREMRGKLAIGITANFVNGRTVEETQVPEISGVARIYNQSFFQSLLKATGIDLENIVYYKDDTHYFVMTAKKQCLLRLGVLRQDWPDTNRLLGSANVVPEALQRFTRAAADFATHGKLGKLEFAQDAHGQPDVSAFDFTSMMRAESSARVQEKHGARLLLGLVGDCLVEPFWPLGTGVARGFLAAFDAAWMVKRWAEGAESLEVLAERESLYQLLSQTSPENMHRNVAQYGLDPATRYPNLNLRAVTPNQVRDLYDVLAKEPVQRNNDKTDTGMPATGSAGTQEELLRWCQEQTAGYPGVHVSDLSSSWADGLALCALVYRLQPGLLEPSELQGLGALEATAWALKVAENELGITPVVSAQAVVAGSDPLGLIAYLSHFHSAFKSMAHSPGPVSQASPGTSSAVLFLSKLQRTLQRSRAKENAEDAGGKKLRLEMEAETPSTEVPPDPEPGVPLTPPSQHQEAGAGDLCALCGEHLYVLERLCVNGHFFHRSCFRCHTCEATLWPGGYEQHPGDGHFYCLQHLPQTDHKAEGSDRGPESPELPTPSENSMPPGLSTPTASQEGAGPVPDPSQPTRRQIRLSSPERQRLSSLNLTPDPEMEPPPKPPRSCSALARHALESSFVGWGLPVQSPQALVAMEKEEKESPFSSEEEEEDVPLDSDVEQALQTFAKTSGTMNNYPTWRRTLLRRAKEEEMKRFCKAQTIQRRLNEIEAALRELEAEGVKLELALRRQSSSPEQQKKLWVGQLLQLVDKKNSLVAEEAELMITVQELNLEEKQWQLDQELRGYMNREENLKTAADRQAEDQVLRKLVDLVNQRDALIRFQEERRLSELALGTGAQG

[2] = target: T2, myc-MICAL1 (human) (UniProt Q8TDZ2); assay: as above
T2 sequence: T1 sequence with W91G, W93G, W96G

[3] = target: T2, myc-MICAL1 (human); assay: co-IP; transfected 293T, IP with α-myc–coated magnetic beads; 20 mM Hepes pH 7.4, 150 mM NaCl, 2 mM EDTA, 1% IGEPAL CA-630; Western blot

Measured: binding

B1: GRAF1b-GFP (protein, UniProt Q9UNA1-2 1-759)
chain: MGLPALEFSDCCLDSPHFRETLKSHEAELDKTNKFIKELIKDGKSLISALKNLSSAKRKFADSLNEFKFQCIGDAETDDEMCIARSLQEFATVLRNLEDERIRMIENASEVLITPLEKFRKEQIGAAKEAKKKYDKETEKYCGILEKHLNLSSKKKESQLQEADSQVDLVRQHFYEVSLEYVFKVQEVQERKMFEFVEPLLAFLQGLFTFYHHGYELAKDFGDFKTQLTISIQNTRNRFEGTRSEVESLMKKMKENPLEHKTISPYTMEGYLYVQEKRHFGTSWVKHYCTYQRDSKQITMVPFDQKSGGKGGEDESVILKSCTRRKTDSIEKRFCFDVEAVDRPGVITMQALSEEDRRLWMEAMDGREPVYNSNKDSQSEGTAQLDSIGFSIIRKCIHAVETRGINEQGLYRIVGVNSRVQKLLSVLMDPKTASETETDICAEWEIKTITSALKTYLRMLPGPLMMYQFQRSFIKAAKLENQESRVSEIHSLVHRLPEKNRQMLQLLMNHLANVANNHKQNLMTVANLGVVFGPTLLRPQEETVAAIMDIKFQNIVIEILIENHEKIFNTVPDMPLTNAQLHLSRKKSSDSKPPSCSERPLTLFHTVQSTEKQEQRNSIINSSLESVSSNPNSILNSSSSLQPNMNSSDPDLAVVKPTRPNSLPPNPSPTSPLSPSWPMFSAPSSPMPTSSTSSDSSPVSTPFRKAKALYACKAEHDSELSFTAGTVFDNVHPSQEPGWLEGTLNGKTGLIPENYVEFL
binds: all assays above
